# Measured values taken from the supplement of paper PMC3334620.
# Whole data set: some 33,000 sequences, median “E-score (-0.5 to 0.5)” near -0.015, cut for the highest 2% near 0.3. The list shows a part of the results.
# Molecular target: T1, Abf1 (UniProt P14164)
# T1 sequence: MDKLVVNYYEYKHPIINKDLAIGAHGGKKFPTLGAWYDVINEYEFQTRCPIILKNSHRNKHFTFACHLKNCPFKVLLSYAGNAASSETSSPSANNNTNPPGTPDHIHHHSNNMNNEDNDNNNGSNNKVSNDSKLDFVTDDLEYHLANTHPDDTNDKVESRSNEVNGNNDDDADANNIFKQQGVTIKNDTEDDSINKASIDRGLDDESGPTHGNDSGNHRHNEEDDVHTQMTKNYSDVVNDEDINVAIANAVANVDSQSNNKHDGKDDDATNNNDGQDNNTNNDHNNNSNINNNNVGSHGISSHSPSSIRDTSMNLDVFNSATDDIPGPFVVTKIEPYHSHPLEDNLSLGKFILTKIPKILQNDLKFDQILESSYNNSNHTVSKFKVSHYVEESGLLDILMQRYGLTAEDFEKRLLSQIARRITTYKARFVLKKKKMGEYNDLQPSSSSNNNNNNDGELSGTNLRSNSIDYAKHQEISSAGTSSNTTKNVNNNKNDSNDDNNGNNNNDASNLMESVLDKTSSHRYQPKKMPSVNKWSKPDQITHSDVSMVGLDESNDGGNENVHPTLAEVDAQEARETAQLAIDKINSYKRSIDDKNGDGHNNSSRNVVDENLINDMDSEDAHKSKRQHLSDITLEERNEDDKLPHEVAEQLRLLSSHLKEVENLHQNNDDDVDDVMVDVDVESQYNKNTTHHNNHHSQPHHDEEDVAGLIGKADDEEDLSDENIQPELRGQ
# Assay: PBM E-score (8-mer binding enrichment) (E-score (-0.5 to 0.5)); higher = stronger / more preferred TF binding
# Conditions: protein concentration: 200 nM; construct: GST-full length
# How it was run: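 Universal all-10-mer Agilent arrays, double-stranded by primer extension on fresh or once-stripped slides, were probed with about 100-200 nM GST-tagged yeast transcription factors made by PURExpress. Fluorescent anti-GST detected bound protein, and masliner normalised the scans. E-scores from the Universal PBM Analysis Suite were given to each ungapped eight-base word pooled with its reverse complement.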
row,Sequence,PBM E-score
1,CCCCAATA,-0.167
2,AAACCATC,-0.0152
3,AACCGACG,0.0464
4,CCGGAAGA,0.0618
5,AGTAAGGC,-0.0216
6,GAGTTGGC,-0.182
7,AGTGACTC,0.149
8,CATACGCC,-0.00293
9,ACCACGCA,-0.132
10,AGTTCTAA,0.0689
11,AATTAATT,0.00666
12,AGGACGTG,0.0342
13,GTTCTCGA,0.0249
14,CTAGTGTC,0.0664
15,AAAGGTCC,0.157
16,ACCTTGGA,-0.145
17,AGAGAGTG,-0.11
18,CTGGATAA,0.0803
19,ACTTATGA,-0.00024
20,GCTTTTTA,0.0686
21,ACGTGAGA,0.128
22,AGGCCCCC,-0.451

row,Sequence,PBM E-score
1,GTTCGATA,-0.00794
2,TAAGTCGA,-0.0778
3,ATCCGGGC,-0.197
4,AATCCCCG,0.127
5,AGTTCGAG,0.0367
6,AAATTCAC,0.0554
7,GGGCGCAA,-0.0456
8,GGATTATA,0.0832
9,AACGTCAC,0.238
10,ATGATCCC,-0.116
11,CACCGAAG,-0.0733
12,GATAAATA,0.257
13,GGCTAAAC,-0.137
14,TGGTTGAA,-0.141
15,CGTAACAG,-0.194
16,ACGGGGAG,-0.203
17,ATTCAAAG,0.00432
18,CGCGGGTC,0.0359
19,ATCATGCG,0.123
20,ATCCTACA,-0.0536
21,CGCAAGGC,-0.172
22,CGGAGCAC,0.0628

row,Sequence,PBM E-score
1,CAGACCTA,-0.0809
2,AACTCCGC,-0.212
3,CAACGACA,0.208
4,CCTTAGTA,-0.0951
5,CAACCAAG,0.0714
6,CGGGGGCA,-0.258
7,CAAAAACG,0.157
8,CTCGAAAA,-0.109
9,AAACCCTA,-0.0584
10,ACCTCTGG,-0.129
11,CAGACCCC,-0.328
12,ACATGAGC,-0.102
13,GAACGATA,0.301
14,GACGAATC,0.246
15,AGTAACAG,0.0121
16,CGCTCATA,-0.0325
17,AGATACCC,0.00447
18,AAGCCCGG,-0.206
19,GGATCACA,0.00896
20,AGAGATGG,-0.0916
21,ACAAATCA,0.177
22,GTGATAAC,0.371

row,Sequence,PBM E-score
1,TAGAGAGA,0.0331
2,CCCCAGGG,-0.311
3,CTCCAACC,-0.0598
4,CGGTTCTA,0.119
5,ATGCCCAC,-0.0381
6,CAATTGCC,-0.0157
7,GCGTCGCC,-0.0875
8,CACCGCCA,-0.245
9,CGCACTGC,-0.0546
10,AAATTTAC,0.0881
11,GAAAAACC,-0.0134
12,CTCGGTGC,-0.104
13,AACCATCG,0.0263
14,AGCTCAGC,-0.164
15,AAGCGGGG,-0.227
16,CGTTTAAG,0.183
17,ACGCAGGG,-0.137
18,TACGCCGA,-0.076
19,GGTACCGA,-0.14
20,CACAGCTG,-0.0915

# As a working copy, part of the list above.
row,Sequence,PBM E-score
16,CGTTTAAG,0.183
17,ACGCAGGG,-0.137
18,TACGCCGA,-0.076
19,GGTACCGA,-0.14
